Test results from patent US7998937B2, “Flavonoid compound having an antiviral activity” (Korea Research Institute of Bioscience and Biotechnology, priority 2005, dated 2011).
At least one compound was matched to its structure with a doubt left. Some entries share one result that the patent states for a list of compounds.

Test system: porcine epidemic diarrhea virus (PEDV)
Experiment: Antiviral activity against PEDV in Vero cells (SRB staining)
Settings: maximum dosage 100 μg/mL, 48 hours

COc1ccc([C@@H]2CC(=O)c3c(O)cc(O[C@@H]4O[C@H](CO[C@@H]5O[C@@H](C)[C@H](O)[C@@H](O)[C@H]5O)[C@@H](O)[C@H](O)[C@H]4O)cc3O2)cc1O [Hesperidin, hesperidin]
IC50 (concentration required for 50% inhibition of viruses) (listed as hesperidin): > 100 µg/mL

C[C@@H]1O[C@@H](OC[C@H]2O[C@@H](Oc3c(-c4ccc(O)c(O)c4)oc4cc(O)cc(O)c4c3=O)[C@H](O)[C@@H](O)[C@@H]2O)[C@H](O)[C@H](O)[C@H]1O [Rutin, rutin]
IC50 (concentration required for 50% inhibition of viruses): IC50 not attained even at the maximum dosage.
